Measured data: PubChem BioAssay AID602196 (INSERM, 2012)

- Assay: 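Genes whose knock-down alters cisplatin killing of lung cancer cells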
- Cell system: human A549 lung cancer cells
- Knock-down reagent: siRNA pair against human genes
- Timing: 48 h transfection before cisplatin; time from cisplatin to read-out not stated
- Challenge: cisplatin at a dose killing half of control-siRNA cells; exact dose and duration not given
- Read-out: 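Shift in cisplatin death relative to control siRNA, from -50 (all cells die) to +50 (no cells die); siRNAs harmful on their own scored 0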
- Scale: two-siRNA summed score (-2 to +2): higher = both siRNAs protect from cisplatin killing; -2 means both sensitise; mean protection from cisplatin (shift in death) and protection from cisplatin (shift in death), siRNA C: higher = protection from cisplatin killing
- Rule for the call: 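Each siRNA scores 0 if harmful alone by LDH or WST-1, otherwise +1 if it reduces and -1 if it increases cisplatin killing; a gene is active when both siRNAs agree (sum +2 or -2)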
- Meaning of the calls: active = both siRNAs shift cisplatin killing the same way; inactive = no consistent shift, or siRNA harmful alone
This is an unselected part of about 23,000 reagents. 455 of all reagents (2%) count as active. 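Active includes both protection and sensitisation; some change values fall well beyond the stated -50 to +50 range.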 Entries without a mark were called inactive. Further read-outs or replicates are left out here. No sequences are given here. Not stated in the record: the amount of reagent.

Gene,PubChem SID,two-siRNA summed score (-2 to +2),mean protection from cisplatin (shift in death) (%),"protection from cisplatin (shift in death), siRNA C (%)"
SCEL,SID131520705,1,10.9,18.1
CT45A5,SID131511824,0,4.8,10.8
SNRPEP2,SID131518073,0,16.3,16.4
NCK2,SID131507269,0,-0.3,3.6
PIK3CD,SID131522468,1,18.8,6.6
HSPA12B,SID131507002,0,-0.7,3.7
MACF1,SID131514501,0,7.9,12.7
DBI,SID131502706,-1,2.7,16.8
GRIN2B,SID131512152,0,5.2,3.6
PTPN14,SID131519321,1,4.7,15.4
DGCR6L,SID131516486,0,10.9,0.6
TPH2,SID131507234,0,-0.4,8.8
LOC144762,SID131513898,0,7.2,4.4
CNOT7,SID131522952,2 (active),14,13.1
CD1C,SID131513297,0,6.4,7.8
BATF2,SID131508964,0,1.7,2.9
SPATA25,SID131520582,1,10.4,5.8
SESTD1,SID131520269,1,9.3,1.5
CCDC188,SID131505621,0,-2.9,-0.8
ZFP30,SID131519494,1,5.9,8.4
KCP,SID131514150,0,7.4,32.1
DYNLL2,SID131510261,0,3.1,2.1
TNFSF13,SID131522263,1,17.2,16.9
USP7,SID131504619,0,-4.9,-6
LOC442410,SID131517863,0,15.1,13.5
SLC6A1,SID131522719,1,22.3,22.3
TDP1,SID131500581,-1,-20.7,-17.1
TSPO,SID131500359,-2 (active),-18.2,-12.8
SLC25A3,SID131501373,-1,-10.2,-12.2
LOC401476,SID131522020,1,15.9,15.8
TRIM66,SID131506720,0,-1.1,8.8
LOC339902,SID131513095,0,6.2,3.1
KIAA1755,SID131515775,0,9.7,-5.5
LOC442575,SID131515424,0,9.2,13.6
NCBP3,SID131506600,0,-1.3,0.9
PAQR5,SID131518870,0,34.3,57.8
LOC401410 (retired record),SID131512683,0,5.7,0.9
ACOT9,SID131512997,0,6.1,9.8
BMS1P20,SID131515021,0,8.6,3
TSSK6,SID131523093,2 (active),19.5,18
LOC347275,SID131510801,0,3.6,-3
PACSIN1,SID131523058,2 (active),18.1,14.6
LOC441872,SID131514509,0,7.9,8.3
CD226,SID131508217,0,0.8,0.2
LOC138652,SID131503961,0,-7,-5
IKZF2,SID131513150,0,6.3,3.1
IRF3,SID131512887,0,6,5.1
GSTM2,SID131516014,0,10.1,14
VCPKMT,SID131503426,0,-10.2,-16.5
LOC441964,SID131514361,0,7.7,6.6
OR52J3,SID131520359,1,9.6,7
DOP1B,SID131510086,0,2.9,8.5
SNAPC3,SID131519278,1,4.5,-3
LOC440426,SID131521845,1,15.1,11.1
TMEM116,SID131513413,0,6.6,8.7
LOC440272,SID131521793,1,14.9,7
RGS16,SID131504718,0,-4.7,-3.7
